# According to the supplement of paper PMC3334620:
# Over roughly 33,000 sequences, “E-score (-0.5 to 0.5)” has its median near -8e-05; the highest 2% begin near 0.23. The list shows a part of the results.
# Target: T1, Nrg2 (UniProt P38082)
# T1 sequence: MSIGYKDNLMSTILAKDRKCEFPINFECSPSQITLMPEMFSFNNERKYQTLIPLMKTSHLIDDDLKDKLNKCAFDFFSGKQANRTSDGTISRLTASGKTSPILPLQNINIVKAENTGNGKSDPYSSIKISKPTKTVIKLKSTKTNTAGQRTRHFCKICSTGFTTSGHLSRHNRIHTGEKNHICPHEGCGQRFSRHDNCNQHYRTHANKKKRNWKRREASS
# Assay: PBM E-score (8-mer binding enrichment) (E-score (-0.5 to 0.5)); higher = stronger / more preferred TF binding
# Conditions: protein concentration: 100 nM; construct: GST-full length
# How it was run: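 The E-score, a modified Wilcoxon-Mann-Whitney statistic, was computed by the Universal PBM Analysis Suite for every ungapped eight-base word pooled with its reverse complement. Scans behind it were normalised with masliner after bound GST-tagged yeast transcription factors were detected with fluorescent anti-GST. The proteins, at about 100-200 nM, had been applied to universal all-10-mer Agilent arrays made double-stranded by primer extension.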
row,Sequence,PBM E-score
1,GTCGATAA,-0.0484
2,ATGGGGGA,-0.356
3,CAACTTGA,0.191
4,AAAGAAGT,-0.00026
5,ACTGAGCA,-0.0638
6,GAAGATTA,0.0238
7,AACGAATT,0.189
8,TCATCACA,-0.0979
9,CCAACAAA,0.023
10,ACACAGCT,-0.0102
11,TAGGTGCA,-0.0534
12,ACAGGAAG,0.0432
13,GAAGAACA,0.155
14,AAACCTAA,0.0731
15,CCCAGCAA,0.0725
16,GCTAACCC,-0.0512
17,GTCAAGGA,-0.209
18,ATAGCTAG,-0.0688
19,CGAGAGGA,0.0593
20,CGACGGTA,0.0706
21,CATTGCAG,0.0963
22,GATTTCTA,0.0626
23,CCAGAGAC,-0.0459
24,AGTTGACC,0.115
25,ACGAATGG,0.168

row,Sequence,PBM E-score
1,AATGCGCT,0.023
2,CGCAACCA,0.162
3,CTTTGGGC,-0.0143
4,CAACGCTA,-0.0189
5,GATGTAGA,-0.0926
6,GGCACCAA,-0.0112
7,ATTCGGAC,0.118
8,ATCGGTCG,-0.007
9,AACGCAAC,0.154
10,ACTAATAT,0.211
11,GTAAATGA,0.114
12,AAAGCTCG,-0.0298
13,GGTCTACA,-0.0592
14,AATTACAT,0.101
15,CGGGACAA,-0.11
16,CAGATGGC,-0.107
17,CATATGGC,-0.00136
18,ACATGAAA,-0.0252
19,GTTGGTGA,0.158
20,ATTTGAGG,-0.111
21,GGTCACTA,-0.0723
22,CAGGGAAC,0.0728
23,AATTCAGT,-0.0207
24,AATACGCT,-0.00046
25,AAGAACCA,0.0577

row,Sequence,PBM E-score
1,AAATGTGC,0.205
2,GGCTCCGA,-0.138
3,TGCGACCA,0.0981
4,CCGTGTGA,-0.0736
5,CGTGCAGA,-0.114
6,CATTCGAG,0.0694
7,AATTAAGG,0.0995
8,TCTCGGAA,0.0924
9,AGCCAAAG,-0.155
10,GGAGAAAC,-0.0128
11,TCACCGGA,-0.114
12,CCCCTTTC,-0.112
13,CCCCACAC,0.0348
14,CAAGAGAC,-0.117
15,ATCGCTGA,0.102
16,CGCGGCGC,0.115
17,ACATAGAT,0.0214
18,ATGTGATG,-0.111
19,ATCAAAGC,0.0951
20,ACAGCTGT,0.196
21,TAGCTACA,0.0824
22,TAGCGAAA,0.0316
23,TCGGCCGA,0.12
24,AGCCCAGG,-0.243
25,GACTTGTA,-0.227

# Reformatted: results already given.
row | Sequence | PBM E-score
2 | GGCTCCGA | -0.138
14 | CAAGAGAC | -0.117
23 | TCGGCCGA | 0.12
25 | GACTTGTA | -0.227

# Following part.

row,Sequence,PBM E-score
1,TCCAGACA,-0.0642
2,AACTGAGT,0.00985
3,CCTCCTCA,-0.281
4,AATGGTAT,0.0683
5,AGACACGC,-0.202
6,GTAACTCA,-0.0308
7,GAGACGCC,-0.154
8,ACACTGCG,-0.0192
9,CAAACGGA,0.00713
10,AAGGAGGG,-0.163
11,CTACCTCC,0.0678
12,AAAGTGCA,-0.00715
13,AAAAAGGC,-0.0272
14,ACCCATAC,0.131
15,ACTGCCCT,-0.0634
16,AATCTCGA,0.142
17,CGTGGCCC,-0.283
18,CGGATAAG,0.0735
19,CGACTGCG,-0.0845
20,GGGGTGCA,0.104
21,ACCATATA,0.207
22,ACCAAATG,0.036
23,ACCCTAGT,-0.0371
24,CGAAACAA,0.175
25,GTCATGAC,0.085

row,Sequence,PBM E-score
1,AAGAGCGA,-0.07
2,GCAATCCA,-0.00518
3,GAAACTCA,0.00034
4,ATTTCGAC,-0.0855
5,ACCGCTCA,0.0791
6,GGGCCCAC,0.203
7,CGTCGCTC,-0.0552
8,AATTTGAT,0.0437
9,CGGGAGTA,-0.087
10,GCAACAGC,-0.0566
11,ACTCGGAA,0.0922
12,ACAACCGC,0.184
13,TTCAGCAA,0.0275
14,CCCCAATC,0.0395
15,TATCGGCA,0.131
16,AGTCGCAG,0.00843
17,TCCTACAA,0.00569
18,GGTTGGAA,0.0303
19,ACCAGGCT,-0.153
20,GGCCACTA,-0.0817
21,CAACCCAA,-0.182
22,GCCCCGTA,-0.132
23,TGCCCACA,-0.0506
24,ATGAGTAG,0.047
25,ACGTTGTC,-0.025

# Quoted from the listing.
# ACCGCTCA | PBM E-score: 0.0791
# AGTCGCAG | PBM E-score: 0.00843

# 2 consecutive records from above, for reference:
row,Sequence,PBM E-score
14,CCCCAATC,0.0395
15,TATCGGCA,0.131

# (listing goes on)

row,Sequence,PBM E-score
1,CGAGACAG,0.168
2,AATAAACT,0.0635
3,GACCTATC,-0.0451
4,CATGAGCG,0.105
5,GCCCTAGA,-0.238
6,GAAAGTTA,0.125
7,AAGCACGC,0.0373
8,CCCCCCGA,-0.421
9,ATGGTCCG,0.171
10,ACATTTCG,0.0534
11,GTCCTGCA,-0.122
12,CAAGAAAC,0.0958
13,ACATCAGT,0.119
14,ATGCGGGC,0.12
15,CGGTGTTA,-0.191
16,ATGCACGC,0.0308
17,CGTACAAC,0.00972
18,ACTAGGTC,0.14
19,GATCGCCC,0.107
20,TCTTATCA,0.129
21,ATTACCCA,0.0885
22,AATGTTTA,-0.0428
23,CGATTTAC,0.0291
24,ACGAGCCG,-0.0621
25,CGACGGCC,-0.00924

row,Sequence,PBM E-score
1,ACAAGCTA,-0.0632
2,CCTTCACC,-0.0756
3,AGATTGGG,0.0805
4,TGAATTAA,0.273
5,ACGGGGTG,0.0543
6,CAACTATA,-0.175
7,ACCGTCCA,-0.00229
8,AAAACGCT,-0.212
9,AGGAATTC,-0.0557
10,CACCGCGA,-0.179
11,CAACGGTG,-0.187
12,ATGCAGCA,0.0643
13,AAAATTTC,0.0206
14,ACGTCAAT,0.0297
15,AGGAGCCC,-0.0807
16,AAGTCGAC,0.145
17,AACGGTCG,-0.064
18,CCTCGGCG,0.168
19,TGGGCTAA,0.0966
20,AAAAAAAG,0.0862
21,AAAACACA,0.132
22,CCTCAGTC,-0.0912
